Data source: PubChem BioAssay AID1053208 (Peter MacCallum Cancer Centre, 2014)
Screen: 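Find knock-downs that sensitise mouse osteosarcoma cells to doxorubicin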 (primary screen). Cells: mouse osteosarcoma cells, early-passage culture from an engineered mouse model of fibroblastic bone tumour. Knock-down reagent: siRNA pool against mouse genes, 40 nM. Duration: about 120 h (48 h before drug, then 72 h with drug). Conditions: doxorubicin 100 nM for 72 h, roughly 30-40% inhibitory dose. Measured: 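Viability read as ATP luminescence after 72 h of 100 nM doxorubicin or none, duplicate wells averaged, scaled to non-targeting siRNA, then expressed as robust z-scores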. Scale: viability z-score with doxorubicin: higher = more viable cells under doxorubicin; viability z-score without drug: higher = more viable cells with knock-down alone. Active means: 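a pool counts as active when its viability z-score with doxorubicin is -2 or below and its z-score without drug lies between -2 and 2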.
The deposit covers about 17,000 reagents; below is a part drawn at random. 788 of all reagents (4.7%) count as active. 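Calls rest on z-score classes alone; an extra cut-off of viability at most 70% of control was not applied to them.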 Entries without a mark were called inactive. Further read-outs or replicates are left out here.

Rmnd5b
- combined z-score class: low cell count with and without drug
- viability z-score with doxorubicin: -2.36
- viability z-score without drug: -3.2

Ttpal
- combined z-score class: no change with or without drug
- viability z-score with doxorubicin: 1.12
- viability z-score without drug: 0.67

Mybl1
- combined z-score class: no change with or without drug
- viability z-score with doxorubicin: 1.01
- viability z-score without drug: 1.18

Htr4
- combined z-score class: no change with or without drug
- viability z-score with doxorubicin: -0.22
- viability z-score without drug: -0.67

Evi5l
- combined z-score class: no change with or without drug
- viability z-score with doxorubicin: -0.67
- viability z-score without drug: -1.18

Dnajc5g
- combined z-score class: low cell count with doxorubicin only (active)
- viability z-score with doxorubicin: -2.7
- viability z-score without drug: 0.51

Hectd2
- combined z-score class: no change with or without drug
- viability z-score with doxorubicin: 0.11
- viability z-score without drug: 1.18

Crot
- combined z-score class: no change with or without drug
- viability z-score with doxorubicin: -0.67
- viability z-score without drug: -1.18

Aff2
- combined z-score class: no change with or without drug
- viability z-score with doxorubicin: -0.9
- viability z-score without drug: -0.17

2610204M12RIK
- combined z-score class: no change with or without drug
- viability z-score with doxorubicin: 0.67
- viability z-score without drug: 1.01

Atp6ap2
- combined z-score class: no change with or without drug
- viability z-score with doxorubicin: -1.01
- viability z-score without drug: -1.01

Cacna1b
- combined z-score class: no change with or without drug
- viability z-score with doxorubicin: 0.22
- viability z-score without drug: -1.52
